Experimental data: the supplement of paper PMC9015667
The other results are listed elsewhere or left out. Repeats are few or missing, and single values can be far off.

Tests used:
Assay in all cases: reduction in cell viability relative to untreated/vehicle; higher = more growth inhibition
Conditions in all cases: 200 nM; 72 h
M229P = system: M229P (parental melanoma line)
M229R = system: M229R (matched melanoma line resistant to BRAF inhibitors)
M238P = system: M238P (parental melanoma line)
M238R = system: M238R (matched melanoma line resistant to BRAF inhibitors)
M249P = system: M249P (parental melanoma line)
M249R = system: M249R (matched melanoma line resistant to BRAF inhibitors)
UACC62P = system: UACC62P (parental melanoma line)
UACC62R = system: UACC62R (matched melanoma line resistant to BRAF inhibitors)

| SMILES | reduction in cell viability (M229P) [%] | reduction in cell viability (M229R) [%] | reduction in cell viability (M238P) [%] | reduction in cell viability (M238R) [%] | reduction in cell viability (M249P) [%] | reduction in cell viability (M249R) [%] | reduction in cell viability (UACC62P) [%] | reduction in cell viability (UACC62R) [%] |
| --- | --- | --- | --- | --- | --- | --- | --- | --- |
| N#CC(c1ccnc(NCCc2cccnc2)n1)c1nc2ccccc2s1 (stereo not given) [JNK Inhibitor V] | < 0 | < 0 | < 0 | < 0 | < 0 | 10.5 | 3.32 | < 0 |
| CCNC(=O)Nc1ccc(-c2nc3c(c(N4CCOC[C@@H]4C)n2)CCN(C2COC2)C3)cc1 | 7.22 | 36.6 | 21.1 | 19.4 | 11.7 | 28.2 | 21 | 22.9 |
| Oc1ccc(C2=Cc3ccc(O)cc3OC2)cc1 [Idronoxil] | < 0 | < 0 | < 0 | < 0 | < 0 | 2.11 | 7.15 | < 0 |
| Cn1cnc2c(F)c(Nc3ccc(Br)cc3F)c(C(=O)NOCCO)cc21 | 25.5 | < 0 | 32.8 | < 0 | 67.4 | 14.4 | 59.7 | 18.5 |
| COc1ccc(-c2oc3c(CC=C(C)C)c(O[C@@H]4O[C@H](CO)[C@@H](O)[C@H](O)[C@H]4O)cc(O)c3c(=O)c2O[C@@H]2O[C@@H](C)[C@H](O)[C@@H](O)[C@H]2O)cc1 [Icariin] | < 0 | < 0 | < 0 | < 0 | < 0 | < 0 | < 0 | < 0 |
| O=C(CCCCCCC(=O)Nc1cccnc1)NO [Pyroxamide] | < 0 | < 0 | < 0 | < 0 | < 0 | < 0 | < 0 | < 0 |
| NC(=O)N1CCC(CC(=O)N2CCC([C@H]3c4ncc(Br)cc4CCc4cc(Cl)cc(Br)c43)CC2)CC1 [Lonafarnib] | < 0 | < 0 | < 0 | < 0 | < 0 | < 0 | < 0 | < 0 |
| Oc1ccc(C2CCN(c3ccnc4ccccc34)CC2)cc1O | < 0 | < 0 | < 0 | < 0 | < 0 | < 0 | < 0 | < 0 |
| N[C@@H](Cc1c[nH]c2ccc(O)cc12)C(=O)O [5-Hydroxytryptophan] | < 0 | < 0 | < 0 | < 0 | < 0 | < 0 | < 0 | < 0 |
| N#Cc1c(NC(=O)c2cccc3ccccc23)sc2c1CCCC2 | 14.8 | 38 | 55.1 | 52.4 | 13.3 | 31.9 | 26.9 | 60.3 |
| C#C[C@]1(O)CC[C@H]2[C@@H]3CCc4cc(OC)ccc4[C@H]3CC[C@@]21C [Mestranol] | < 0 | < 0 | < 0 | < 0 | < 0 | < 0 | 6.7 | < 0 |
| COc1c(OCCCN2CCOCC2)ccc2c1N=C(NC(=O)c1cnc(N)nc1)N1CCN=C21 | < 0 | 7.06 | 8.93 | < 0 | < 0 | < 0 | < 0 | < 0 |
| O=C(CCCN1CCC(O)(c2ccc(Cl)cc2)CC1)c1ccc(F)cc1 [Haloperidol] | < 0 | < 0 | < 0 | < 0 | < 0 | < 0 | 0.87 | < 0 |
| CC[C@@H]1C(=O)N(C)c2cnc(Nc3ccc(C(=O)NC4CCN(C)CC4)cc3OC)nc2N1C1CCCC1 | 29.9 | 47.5 | 34.6 | < 0 | 24.6 | 43.8 | 41.9 | 72.9 |
| Cc1ccc(Nc2nccc(N(C)c3ccc4c(C)n(C)nc4c3)n2)cc1S(N)(=O)=O [Pazopanib] | < 0 | < 0 | < 0 | < 0 | < 0 | 6.01 | < 0 | < 0 |
| CC(C)c1ccc2oc3nc(N)c(C(=O)O)cc3c(=O)c2c1 [Amlexanox] | < 0 | < 0 | < 0 | < 0 | 3.02 | 0.41 | < 0 | < 0 |
| COC(c1ccccc1)(c1ccccc1)[C@H](Oc1nc(C)cc(C)n1)C(=O)O [Ambrisentan] | < 0 | < 0 | 2.8 | < 0 | < 0 | 8.58 | < 0 | < 0 |
| Cc1ncc(-c2ccnc(Nc3ccc(S(C)(=O)=O)cc3)n2)n1C(C)C | < 0 | < 0 | < 0 | < 0 | < 0 | < 0 | < 0 | < 0 |
| CCCOc1ccc2[nH]c(NC(=O)OC)nc2c1 [Oxibendazole] | 5.59 | 15.5 | 22.4 | 4.48 | 6.77 | 16.3 | 13.4 | 61.6 |
| CCOC(CN1C(=O)[C@](CC(=O)Nc2ccc(C)cc2)(NC(=O)Nc2ccc(C)cc2)c2ccccc21)OCC | < 0 | < 0 | < 0 | < 0 | < 0 | < 0 | < 0 | < 0 |

Retrieved by structure from the list above, 2 records:

| SMILES | reduction in cell viability (M229P) [%] | reduction in cell viability (M229R) [%] | reduction in cell viability (M238P) [%] | reduction in cell viability (M238R) [%] | reduction in cell viability (M249P) [%] | reduction in cell viability (M249R) [%] | reduction in cell viability (UACC62P) [%] | reduction in cell viability (UACC62R) [%] |
| --- | --- | --- | --- | --- | --- | --- | --- | --- |
| Cc1ncc(-c2ccnc(Nc3ccc(S(C)(=O)=O)cc3)n2)n1C(C)C | < 0 | < 0 | < 0 | < 0 | < 0 | < 0 | < 0 | < 0 |
| C#C[C@]1(O)CC[C@H]2[C@@H]3CCc4cc(OC)ccc4[C@H]3CC[C@@]21C [Mestranol] | < 0 | < 0 | < 0 | < 0 | < 0 | < 0 | 6.7 | < 0 |
